In the supplement of paper PMC8728848:
The list shows a part of the results.

What was measured:
Experiment in all cases: glycan array binding signal (z-score within array); higher = stronger binding
Conditions in all cases: glycan notation: IUPAC condensed, linker removed
[1] = biological target: Fuc(a1-2)Gal(b1-4)[Fuc(a1-3)]GlcNAc(b1-2)Man(a1-3)[Fuc(a1-2)Gal(b1-4)[Fuc(a1-3)]GlcNAc(b1-2)Man(a1-6)]Man(b1-4)GlcNAc(b1-4)[Fuc(a1-6)]GlcNAc
Method in brief: (§1)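 Columns mapping to the same glycan were averaged after glycan names were converted to IUPAC-condensed notation. The data come from 3228 arrays in the Consortium for Functional Glycomics database, limited to those with an available protein sequence. Binding is reported as a within-array Z-score averaged across arrays of one protein sequence and across linkers.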

[2] = biological target: Fuc(a1-2)Gal(b1-4)[Fuc(a1-3)]GlcNAc(b1-2)[Fuc(a1-2)Gal(b1-4)[Fuc(a1-3)]GlcNAc(b1-4)]Man(a1-3)[Fuc(a1-2)Gal(b1-4)[Fuc(a1-3)]GlcNAc(b1-2)Man(a1-6)]Man(b1-4)GlcNAc(b1-4)GlcNAc
Method in brief: as §1

[3] = biological target: Fuc(a1-2)Gal(b1-4)[Fuc(a1-3)]GlcNAc(b1-3)Gal(b1-4)[Fuc(a1-3)]GlcNAc
Method in brief: as §1

[4] = biological target: Fuc(a1-2)Gal(b1-4)[Fuc(a1-3)]GlcNAc(b1-3)Gal(b1-4)[Fuc(a1-3)]GlcNAc(b1-3)Gal(b1-4)[Fuc(a1-3)]GlcNAc
Method in brief: as §1

[5] = biological target: Fuc(a1-2)Gal(b1-4)[Fuc(a1-3)]GlcNAc(b1-3)GalNAc
Method in brief: as §1

[6] = biological target: Fuc(a1-2)Gal(b1-4)[Fuc(a1-3)]GlcNAc(b1-3)[Neu5Ac(a2-6)Gal(b1-4)GlcNAc(b1-6)]Gal(b1-4)Glc
Method in brief: as §1

[7] = biological target: Fuc(a1-2)Gal3S(b1-4)GlcNAc
Method in brief: as §1

[8] = biological target: Fuc(a1-2)Gal6S(b1-3)GlcNAc
Method in brief: as §1

[9] = biological target: Fuc(a1-2)Gal6S(b1-3)GlcNAc6S
Method in brief: as §1

Fuc(a1-2)Gal6S(b1-4)Glc = biological target: Fuc(a1-2)Gal6S(b1-4)Glc
Method in brief: as §1

[10] = biological target: Fuc(a1-2)Gal6S(b1-4)Glc6S
Method in brief: as §1

Fuc(a1-2)[Gal(a1-3)]Gal = biological target: Fuc(a1-2)[Gal(a1-3)]Gal
Method in brief: as §1

[11] = biological target: Fuc(a1-2)[Gal(a1-3)]Gal(b1-3)GalNAc
Method in brief: as §1

[12] = biological target: Fuc(a1-2)[Gal(a1-3)]Gal(b1-3)GalNAc(b1-3)Gal(a1-4)Gal(b1-4)Glc
Method in brief: as §1

[13] = biological target: Fuc(a1-2)[Gal(a1-3)]Gal(b1-3)GlcNAc
Method in brief: as §1

[14] = biological target: Fuc(a1-2)[Gal(a1-3)]Gal(b1-3)GlcNAc(b1-2)Man(a1-3)[Fuc(a1-2)[Gal(a1-3)]Gal(b1-3)GlcNAc(b1-2)Man(a1-6)]Man(b1-4)GlcNAc(b1-4)GlcNAc
Method in brief: as §1

[15] = biological target: Fuc(a1-2)[Gal(a1-3)]Gal(b1-3)GlcNAc(b1-2)Man(a1-3)[Fuc(a1-2)[Gal(a1-3)]Gal(b1-3)GlcNAc(b1-2)Man(a1-6)]Man(b1-4)GlcNAc(b1-4)[Fuc(a1-6)]GlcNAc
Method in brief: as §1

[16] = biological target: Fuc(a1-2)[Gal(a1-3)]Gal(b1-3)GlcNAc(b1-3)GalNAc
Method in brief: as §1

[17] = biological target: Fuc(a1-2)[Gal(a1-3)]Gal(b1-3)GlcNAc(b1-6)GalNAc
Method in brief: as §1

[18] = biological target: Fuc(a1-2)[Gal(a1-3)]Gal(b1-4)Glc
Method in brief: as §1

[19] = biological target: Fuc(a1-2)[Gal(a1-3)]Gal(b1-4)GlcNAc
Method in brief: as §1

[20] = biological target: Fuc(a1-2)[Gal(a1-3)]Gal(b1-4)GlcNAc(b1-2)Man
Method in brief: as §1

[21] = biological target: Fuc(a1-2)[Gal(a1-3)]Gal(b1-4)GlcNAc(b1-2)Man(a1-3)[Fuc(a1-2)[Gal(a1-3)]Gal(b1-4)GlcNAc(b1-2)Man(a1-6)]Man(b1-4)GlcNAc(b1-4)GlcNAc
Method in brief: as §1

[22] = biological target: Fuc(a1-2)[Gal(a1-3)]Gal(b1-4)GlcNAc(b1-2)Man(a1-3)[Fuc(a1-2)[Gal(a1-3)]Gal(b1-4)GlcNAc(b1-2)Man(a1-6)]Man(b1-4)GlcNAc(b1-4)[Fuc(a1-6)]GlcNAc
Method in brief: as §1

[23] = biological target: Fuc(a1-2)[Gal(a1-3)]Gal(b1-4)GlcNAc(b1-3)GalNAc
Method in brief: as §1

[24] = biological target: Fuc(a1-2)[Gal(a1-3)]Gal(b1-4)GlcNAc(b1-3)[Fuc(a1-2)[Gal(a1-3)]Gal(b1-4)GlcNAc(b1-6)]GalNAc
Method in brief: as §1

[25] = biological target: Fuc(a1-2)[Gal(a1-3)]Gal(b1-4)GlcNAc(b1-6)GalNAc
Method in brief: as §1

[26] = biological target: Fuc(a1-2)[Gal(a1-3)]Gal(b1-4)[Fuc(a1-3)]Glc
Method in brief: as §1

[27] = biological target: Fuc(a1-2)[Gal(a1-3)]Gal(b1-4)[Fuc(a1-3)]GlcNAc
Method in brief: as §1

[28] = biological target: Fuc(a1-2)[Gal(a1-3)]Gal(b1-4)[Fuc(a1-3)]GlcNAc(b1-3)GalNAc
Method in brief: as §1

[29] = biological target: Fuc(a1-2)[Gal(a1-4)]Gal(b1-4)GlcNAc
Method in brief: as §1

[30] = biological target: Fuc(a1-2)[GalNAc(a1-3)]Gal
Method in brief: as §1

[31] = biological target: Fuc(a1-2)[GalNAc(a1-3)]Gal(b1-3)GalNAc(a1-3)[Fuc(a1-2)]Gal(b1-4)GlcNAc
Method in brief: as §1

[32] = biological target: Fuc(a1-2)[GalNAc(a1-3)]Gal(b1-3)GalNAc(b1-3)Gal(a1-4)Gal(b1-4)Glc
Method in brief: as §1

[33] = biological target: Fuc(a1-2)[GalNAc(a1-3)]Gal(b1-3)GlcNAc
Method in brief: as §1

[34] = biological target: Fuc(a1-2)[GalNAc(a1-3)]Gal(b1-3)GlcNAc(b1-2)Man(a1-3)[Fuc(a1-2)[GalNAc(a1-3)]Gal(b1-3)GlcNAc(b1-2)Man(a1-6)]Man(b1-4)GlcNAc(b1-4)GlcNAc
Method in brief: as §1

[35] = biological target: Fuc(a1-2)[GalNAc(a1-3)]Gal(b1-3)GlcNAc(b1-2)Man(a1-3)[Fuc(a1-2)[GalNAc(a1-3)]Gal(b1-3)GlcNAc(b1-2)Man(a1-6)]Man(b1-4)GlcNAc(b1-4)[Fuc(a1-6)]GlcNAc
Method in brief: as §1

[36] = biological target: Fuc(a1-2)[GalNAc(a1-3)]Gal(b1-3)GlcNAc(b1-3)GalNAc
Method in brief: as §1

B1: PX9937I-bfa-538-26-538 (Bacteroides fragilis) (protein)
chain: DKLDLSPIDYYGSGSYWKTEAQATAYIDGIHKHLRDAAWQHTITFGELRGGRFITGASSDGMGVSNGDIILQNFDETHTGVSKFGDLFGRITNLNLFIARVTDATYLSDEMKNFYLGEVYGLRAFYYFDLYRIYGGVPLRLTADVVEGVIDPNKLYMARSTPKEVMTQIKSDLNKSMEYFGNMNDFDPYKRGKKVYWSKAATECLMGEVYLWTSKVTTGDDVANPADLTIAKTHLESVLNNYNLKMLDDFSQVFNAKNKANDEIIFAIRFLEGEATNSNGTFTYNVGTGSTKNRYQANGEVFGDALDIQNTGNQTYEYNKAVYQNFDDADTRKEATFIASYNKDGKTGELSLYGTHVRKNIGYVNAQGARVYCGDYIFYRLPWVYLTLAEIANMEGDNAAVAKYINLVRKRAYGNAWDETLYAYPETADFTTNELAILHEKDKEFIQEGQRWWDLRRMTLTKGGTPLVFCKEGSLLGDAPILNKSTEAHKLLWPIEKTMLNKDPALEQTPGYK
With B1 the “glycan array binding signal (z-score)” value [1] was -0.346, the “glycan array binding signal (z-score)” value [2] was -0.408 and the “glycan array binding signal (z-score)” value [3] was 0.375. For the same binder, the “glycan array binding signal (z-score)” value [4] was -0.436, the “glycan array binding signal (z-score)” value [5] was -0.322 and the “glycan array binding signal (z-score)” value [6] was -0.123. The “glycan array binding signal (z-score)” value [7] was -0.854, the “glycan array binding signal (z-score)” value [8] was -0.264 and the “glycan array binding signal (z-score)” value [9] was 0.625. For the same binder, the “glycan array binding signal (z-score)” value (Fuc(a1-2)Gal6S(b1-4)Glc) was 0.121, the “glycan array binding signal (z-score)” value [10] was 2.55 and the “glycan array binding signal (z-score)” value (Fuc(a1-2)[Gal(a1-3)]Gal) was -0.194. For the same binder, the “glycan array binding signal (z-score)” value [11] was -0.393, the “glycan array binding signal (z-score)” value [12] was -0.537 and the “glycan array binding signal (z-score)” value [13] was -0.149. For the same binder, the “glycan array binding signal (z-score)” value [14] was 0.416, the “glycan array binding signal (z-score)” value [15] was -0.338 and the “glycan array binding signal (z-score)” value [16] was -0.498. For the same binder, the “glycan array binding signal (z-score)” value [17] was 0.661, the “glycan array binding signal (z-score)” value [18] was -0.412 and the “glycan array binding signal (z-score)” value [19] was -1.34. The “glycan array binding signal (z-score)” value [20] was -0.34, the “glycan array binding signal (z-score)” value [21] was 0.493 and the “glycan array binding signal (z-score)” value [22] was -0.191. For the same binder, the “glycan array binding signal (z-score)” value [23] was 0.748, the “glycan array binding signal (z-score)” value [24] was -0.413 and the “glycan array binding signal (z-score)” value [25] was 0.089. For the same binder, the “glycan array binding signal (z-score)” value [26] was 0.262, the “glycan array binding signal (z-score)” value [27] was -0.326 and the “glycan array binding signal (z-score)” value [28] was -0.404. For the same binder, the “glycan array binding signal (z-score)” value [29] was -0.539, the “glycan array binding signal (z-score)” value [30] was -0.759 and the “glycan array binding signal (z-score)” value [31] was -1.37. The “glycan array binding signal (z-score)” value [32] was -0.303, the “glycan array binding signal (z-score)” value [33] was -0.231 and the “glycan array binding signal (z-score)” value [34] was -0.077. The “glycan array binding signal (z-score)” value [35] was -0.728 and the “glycan array binding signal (z-score)” value [36] was 0.524.
